Assay: Coin battery charge-discharge test (metal lithium negative electrode), Test Example 3
Conditions: for Repetition capacity retention rate: charge-discharge capacity at the 20th cycle relative to the initial cycle; for Utilization rate: charge-discharge capacity with respect to the theoretical capacity; for Capacity Charge-discharge capacity: per gram of positive electrode active material, from initial discharge capacity, 0.2 C rate, 2.0 V to 4.0 V
Excerpt: A coin battery as shown in FIG. 5 was fabricated as one example of the power storage device of the present invention. FIG. 5 is a vertical cross-sectional view schematically showing a configuration of a coin battery 1 that is one example of the power storage device of the present invention.
A positive electrode includes a positive electrode current collector 12 made of an aluminum foil and a positive electrode active material layer 13 formed on the positive electrode current collector 12 and containing the phenanthrenequinone-containing compound (1a). The positive electrode was produced in the same manner as in the electrode production method in Test Example 2. This positive electrode was disposed such that the positive electrode current collector 12 was brought into contact with the inner surface of a case 11, and a separator 14 made of a porous polyethylene sheet was placed on the positive electrode.
Then, a non-aqueous electrolyte was injected into the case 11. As the non-aqueous electrolyte, an electrolyte prepared by dissolving lithium hexafluorophosphate in a concentration of 1.25 mol/L in a solvent mixture containing ethylene carbonate and ethylmethyl carbonate (weight ratio 1:3) was used.
Meanwhile, a negative electrode current collector 17 and a negative electrode active material layer 16 were press-fitted in this order onto the inner surface of a sealing plate 15 to provide a negative electrode. As the negative electrode active material layer 16, a 300 μm-thick metal lithium was used. As the negative electrode current collector 17, a 100 μm-thick stainless steel foil was used.
The case 11 in which the positive electrode was provided and the sealing plate 15 on which the negative electrode was provided were stacked such that the negative electrode active material layer 16 was in pressure contact with the separator 14, with a gasket 18 being placed around the circumference, and then sealed by crimping using a pressing machine. Thus, a coin battery of the present invention having a thickness of 1.6 mm and a diameter of 20 mm was fabricated.
The coin batteries of the present invention obtained in Examples 11 to 18 and the coin battery of Comparative Example 1 were subjected to a charge-discharge test. The charge-discharge test was conducted under the charge-discharge conditions of a current value of 0.2 C rate (5 hour rate) with respect to the theoretical capacity of each coin battery and a voltage range from 2.0 V to 4.0 V. The charge-discharge test was started with discharging, and an interval of 5 minutes was set between discharging and charging, and between charging and discharging. The charge-discharge test was repeated 20 times.
The charge-discharge capacity was calculated based on the initial discharge capacity of each of the coin batteries. The utilization rate (%) is the percentage of the charge-discharge capacity with respect to the theoretical capacity. The repetition capacity retention rate (%) is the percentage of the charge-discharge capacity at the 20th cycle relative to the charge-discharge capacity at the initial cycle.

Which results are given for `O=C1C(=O)c2ccccc2-c2ccccc21` [9,10-phenanthrenequinone, reference compound]?
Repetition capacity retention rate: 15%; Utilization rate: 65%; Capacity Charge-discharge capacity: 167 mAh/g

Which results are given for `O=C1C(=O)c2cc(-c3ccc(-c4ccc5c(c4)C(=O)C(=O)c4ccccc4-5)cc3)ccc2-c2ccccc21` [Compound 1a, 1,4-(9,10-phenanthraquinone)-benzene]?
Repetition capacity retention rate: 75%; Utilization rate: 80%; Capacity Charge-discharge capacity: 175 mAh/g

Which “Repetition capacity retention rate” value does the source give for `O=C1C(=O)c2cc(-c3ccc(-c4ccc5c(c4)C(=O)C(=O)c4ccccc4-5)s3)ccc2-c2ccccc21` [Compound 1i, 2,2′-(thiophene-2,5-diyl)diphenanthrene-9,10-dione] here?
Its value is 79%.

What about the Utilization rate of the same compound?
The Utilization rate was 83%.

What about the “Capacity Charge-discharge capacity” value of the same compound?
Its value is 179 mAh/g.

Reference: US20110143197A1, “ELECTRODE ACTIVE MATERIAL FOR POWER STORAGE DEVICE AND POWER STORAGE DEVICE, AND ELECTRONIC EQUIPMENT AND TRANSPORTATION EQUIPMENT” (priority 2008, published 2011)
